These are yes or no findings as the source states them, for the method shown. Binding seen in cells or lysates may run through a third protein. Some results given as binding are weak or reduced against the parent protein; the word gives no strength.
Biological target: hsc70 (UniProt P11142)
Test: co-IP

The chains behind the UniProt entries cited, without tags or fusion partners.
UniProt P11142: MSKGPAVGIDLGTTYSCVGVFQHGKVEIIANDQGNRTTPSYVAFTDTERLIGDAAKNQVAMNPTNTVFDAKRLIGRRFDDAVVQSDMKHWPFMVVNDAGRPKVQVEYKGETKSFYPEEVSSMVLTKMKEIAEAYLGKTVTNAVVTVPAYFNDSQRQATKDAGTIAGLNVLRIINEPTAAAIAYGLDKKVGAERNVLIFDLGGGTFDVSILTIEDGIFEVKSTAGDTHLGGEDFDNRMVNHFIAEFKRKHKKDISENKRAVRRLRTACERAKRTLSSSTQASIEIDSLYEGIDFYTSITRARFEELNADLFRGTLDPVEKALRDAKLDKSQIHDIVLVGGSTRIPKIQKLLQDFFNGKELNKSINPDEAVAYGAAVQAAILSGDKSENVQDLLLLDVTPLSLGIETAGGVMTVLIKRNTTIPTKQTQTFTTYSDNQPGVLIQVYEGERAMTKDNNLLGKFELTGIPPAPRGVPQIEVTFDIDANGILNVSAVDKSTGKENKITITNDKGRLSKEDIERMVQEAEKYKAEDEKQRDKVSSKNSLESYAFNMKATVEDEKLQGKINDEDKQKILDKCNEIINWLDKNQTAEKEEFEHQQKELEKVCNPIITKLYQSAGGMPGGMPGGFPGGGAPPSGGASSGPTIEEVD
UniProt Q9GZT9: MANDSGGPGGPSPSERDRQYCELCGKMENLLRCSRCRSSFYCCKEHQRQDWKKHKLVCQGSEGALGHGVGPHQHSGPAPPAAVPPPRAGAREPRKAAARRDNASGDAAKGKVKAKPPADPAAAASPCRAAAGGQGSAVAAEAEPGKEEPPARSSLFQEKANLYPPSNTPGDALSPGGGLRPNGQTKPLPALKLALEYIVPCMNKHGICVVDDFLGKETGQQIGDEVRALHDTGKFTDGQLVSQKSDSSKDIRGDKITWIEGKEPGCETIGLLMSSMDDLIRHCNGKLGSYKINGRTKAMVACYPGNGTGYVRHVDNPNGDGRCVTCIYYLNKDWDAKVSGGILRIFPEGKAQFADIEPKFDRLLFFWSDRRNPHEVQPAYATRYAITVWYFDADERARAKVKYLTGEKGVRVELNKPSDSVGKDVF

For “PHD2 of the co-IP with hsc70 (data not shown) (from UniProt Q9GZT9 1-426) (enzyme)”, the binding was “binds”.

From publication doi:10.1101/297333
